Test results as given in PubChem BioAssay AID1030 (National Center for Advancing Translational Sciences (NCATS), 2008).
The whole screen tested about 220,000 compounds, of which about 16,000 (7.3%) were called active. Only results without a clear call are listed here; the source files them as inconclusive. Calls follow the shape of the dose curve; as a rule, active = well fitted inhibition curve with a large enough effect (not every such curve was filed as active); inconclusive = small, poorly fitted or top-dose-only effect, or another doubt; inactive = no such curve, though single readings can be large or run the other way.

Protein sequences, listed by entry. Tags and fused reporters are not part of them.
UniProt P00352, whole entry: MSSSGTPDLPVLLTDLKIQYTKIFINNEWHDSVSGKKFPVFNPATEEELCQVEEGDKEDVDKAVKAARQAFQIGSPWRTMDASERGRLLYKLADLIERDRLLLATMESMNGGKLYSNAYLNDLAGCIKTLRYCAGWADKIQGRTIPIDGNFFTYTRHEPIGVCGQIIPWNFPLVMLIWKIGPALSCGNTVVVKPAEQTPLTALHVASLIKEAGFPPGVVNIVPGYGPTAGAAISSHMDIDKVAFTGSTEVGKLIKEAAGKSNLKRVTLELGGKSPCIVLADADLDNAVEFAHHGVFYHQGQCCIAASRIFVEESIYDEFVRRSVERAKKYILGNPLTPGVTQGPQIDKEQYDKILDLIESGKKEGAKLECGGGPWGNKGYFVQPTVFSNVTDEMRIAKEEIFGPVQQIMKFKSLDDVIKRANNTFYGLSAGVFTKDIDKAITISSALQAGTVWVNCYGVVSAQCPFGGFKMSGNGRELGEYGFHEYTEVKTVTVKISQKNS

target: Aldehyde dehydrogenase 1A1 (Homo sapiens) (UniProt P00352); experiment: qHTS Assay for Inhibitors of Aldehyde Dehydrogenase 1 (ALDH1A1); conditions: Purified ALDH1A1, NADH fluorescence, propionaldehyde substrate
Potency is read from the fitted curve at half-maximal effect.

Structure (SMILES) | Potency
NNC(NN)NN.n1nc(-c2nn[nH]n2)n[nH]1 | inconclusive: 8.91 µM
O=[N+]([O-])c1cc([N+](=O)[O-])c(Nc2ccccn2)c([N+](=O)[O-])c1 | inconclusive: 28.2 µM
Cc1nc2ccc3ccccc3c2o1.O=[N+]([O-])c1cc([N+](=O)[O-])c(O)c([N+](=O)[O-])c1 | inconclusive: 44.7 µM
CCOP(C)(=S)SCC(=O)NC(C)C(=O)O (stereo unspecified) | inconclusive: 14.1 µM
Cc1nc2ccc3ccccc3c2s1.O=[N+]([O-])c1cc([N+](=O)[O-])c(O)c([N+](=O)[O-])c1 | inconclusive: 39.8 µM
O=[N+]([O-])c1cc([N+](=O)[O-])c(-n2nnc3ccccc32)c([N+](=O)[O-])c1 | inconclusive: 39.8 µM
